According to PMC7161113:
These are yes or no findings as the source states them, for the method shown. For part of these data: In cells and extracts the contact can be indirect. Some entries that bind do so weakly or less than the wild type. Sequences can lack the tags named with a protein.

Protein sequences, listed by entry. Tags and fused reporters are not part of them.
UniProt P96825: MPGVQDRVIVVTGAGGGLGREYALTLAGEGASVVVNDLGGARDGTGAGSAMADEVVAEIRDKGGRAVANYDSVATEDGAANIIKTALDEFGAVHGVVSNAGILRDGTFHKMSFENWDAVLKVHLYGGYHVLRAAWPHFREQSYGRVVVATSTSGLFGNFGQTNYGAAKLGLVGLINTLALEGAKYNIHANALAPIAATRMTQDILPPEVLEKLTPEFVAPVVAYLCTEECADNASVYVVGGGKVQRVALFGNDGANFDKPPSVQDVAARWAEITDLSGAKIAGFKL

T1: His-tagged Htdy (Rv3389) (Mycobacterium tuberculosis) (UniProt I6YBZ8)
T1 sequence: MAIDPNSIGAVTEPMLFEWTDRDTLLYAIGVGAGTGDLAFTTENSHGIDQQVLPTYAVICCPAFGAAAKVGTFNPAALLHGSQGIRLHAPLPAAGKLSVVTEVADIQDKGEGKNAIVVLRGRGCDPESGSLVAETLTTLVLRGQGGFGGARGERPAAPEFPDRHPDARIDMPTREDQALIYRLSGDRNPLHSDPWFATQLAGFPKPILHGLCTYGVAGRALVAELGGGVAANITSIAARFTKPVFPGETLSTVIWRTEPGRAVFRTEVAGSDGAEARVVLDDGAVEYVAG


Key:
[1] = target: T1, His-tagged Htdy (Rv3389) (Mycobacterium tuberculosis); assay: pull-down
[2] = target: GST-tagged Rv0148 (Mycobacterium tuberculosis) (UniProt P96825); assay: far-Western, overlay or dot blot
[3] = target: GST-tagged Rv0148 (Mycobacterium tuberculosis) (UniProt P96825); assay: pull-down; reverse orientation: GST-tagged Rv0148 lysate as bait, His-tagged recombinant Htdy as prey; details of this orientation not told

Row | Molecule | binding [1] | binding [2] | binding [3]
1 | GST-tagged Rv0148 (from UniProt P96825 1-286) (enzyme) | binds | – | –
2 | His-tagged Htdy (Rv3389) (enzyme, UniProt I6YBZ8 1-290) MAIDPNSIGAVTEPMLFEWTDRDTLLYAIGVGAGTGDLAFTTENSHGIDQQVLPTYAVICCPAFGAAAKVGTFNPAALLHGSQGIRLHAPLPAAGKLSVVTEVADIQDKGEGKNAIVVLRGRGCDPESGSLVAETLTTLVLRGQGGFGGARGERPAAPEFPDRHPDARIDMPTREDQALIYRLSGDRNPLHSDPWFATQLAGFPKPILHGLCTYGVAGRALVAELGGGVAANITSIAARFTKPVFPGETLSTVIWRTEPGRAVFRTEVAGSDGAEARVVLDDGAVEYVAG | – | binds | binds
